PubChem BioAssay AID686938, Drosophila RNAi Screening Center, 2013
The deposit covers about 23,000 reagents; below is an unselected part of those that have a named target and a result. In the full data, 75 (0.33%) got an active call. 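Raw plate signals without normalisation; calls rest on plate z-scores that were not deposited; ratio present for only 364 wells.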 Names joined by + are all predicted targets of the reagent. Reagent sequences are not shown. Not given: the dose of the treatment.

- Screen: 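Looking for CRAC channel components and the factors controlling them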 (primary screen)
- Cell system: Drosophila S2R+ cells
- Reagent: long dsRNA against Drosophila genes, about 0.25 µg dsRNA per well, roughly 10,000 cells
- Time to read-out: 5 days of knock-down before the calcium assay
- Treatment: thapsigargin (SERCA pump blocker) to empty calcium stores; entry signal taken 4 min after adding it
- Read-out: 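Per-well fluo-4 fluorescence in two replicates, unnormalised, measured in resting cells and 4 min after store depletion by the SERCA blocker thapsigargin; ratio of the two present in few wells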
- Reading the numbers: calcium entry signal: higher = stronger calcium signal after store depletion; resting calcium signal: higher = higher resting calcium signal
- Active means: 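Hit if the duplicate-averaged plate z-score for entry over resting signal is under −3; wells with weak total dye signal (Fmax z < −2) or more than 5 off-targets removed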
- Calls: active = strongly reduced calcium entry; inactive = no strong reduction

gene	amplicon	calcium entry signal, replicate 1 (fluorescence units)	calcium entry signal, replicate 2 (fluorescence units)	resting calcium signal, replicate 1 (fluorescence units)	resting calcium signal, replicate 2 (fluorescence units)	Call
CG15258	DRSC02478	4.96e7	3.02e7	2.07e7	1.48e7	inactive
Lime	DRSC06752	3.85e7	3.52e7	1.89e7	1.53e7	inactive
CG16985	DRSC08501	4.30e7	5.67e7	2.02e7	2.32e7	inactive
CG11788	DRSC06084	5.63e7	5.07e7	2.41e7	2.43e7	inactive
Gr22e	DRSC20912	3.85e7	3.10e7	1.82e7	1.59e7	inactive
CG31810	DRSC01560	2.45e7	4.12e7	1.50e7	1.76e7	inactive
CG7741	DRSC07035	3.11e7	2.47e7	1.61e7	1.06e7	inactive
fand	DRSC06967	2.09e7	1.61e7	1.24e7	9.26e6	inactive
DAAM	DRSC18479	4.75e7	2.91e7	2.19e7	1.47e7	inactive
CG11668	DRSC14341	2.73e7	3.80e7	1.53e7	5.51e7	inactive
CG42458	DRSC08881	4.63e7	4.63e7	2.49e7	2.18e7	inactive
CG42458	DRSC10335	4.59e7	4.03e7	2.96e7	1.82e7	inactive
CG42458	DRSC23129	2.94e7	3.65e7	1.52e7	1.70e7	inactive
CG42458	DRSC23261	3.38e7	3.87e7	1.70e7	1.61e7	inactive
CG5611	DRSC15843	2.06e7	3.57e7	1.06e7	1.54e7	inactive
CG14696	DRSC14919	3.81e7	3.71e7	1.91e7	1.88e7	inactive
sdk	DRSC18831	3.93e7	5.05e7	1.81e7	2.22e7	inactive
CG5861	DRSC02907	5.06e7	4.07e7	2.21e7	1.75e7	inactive
betaTub97EF	DRSC15666	2.25e7	3.69e7	1.50e7	1.76e7	inactive
betaTub97EF	DRSC15667	3.17e7	4.89e7	1.66e7	2.05e7	inactive
betaTub97EF	DRSC15668	3.27e7	5.24e7	1.75e7	2.11e7	inactive
CG42726 + CG42727	DRSC14485	3.96e7	4.72e7	1.69e7	1.95e7	inactive
Gyf	DRSC17202	4.04e7	4.30e7	1.89e7	1.86e7	inactive
CG10555	DRSC17748	3.13e7	4.30e7	1.77e7	2.22e7	inactive
CG10555	DRSC23202	3.57e7	3.52e7	1.84e7	1.69e7	inactive
dare	DRSC07602	2.56e7	2.55e7	1.09e7	1.20e7	inactive

Limited to “calcium entry signal, replicate 2 (fluorescence units)” (4 entries from above):
CG5611 [DRSC15843]: 3.57e7
CG14696 [DRSC14919]: 3.71e7
sdk [DRSC18831]: 5.05e7
CG5861 [DRSC02907]: 4.07e7

Continued:
gene	amplicon	calcium entry signal, replicate 1 (fluorescence units)	calcium entry signal, replicate 2 (fluorescence units)	resting calcium signal, replicate 1 (fluorescence units)	resting calcium signal, replicate 2 (fluorescence units)	Call
cos	DRSC07598	3.99e7		2.07e7		inactive
CG34376	DRSC14695	2.80e7	3.83e7	6.78e7	1.59e7	inactive
CG34376	DRSC14696	3.23e7	3.57e7	6.51e7	1.54e7	inactive
CG34376	DRSC14701	4.01e7	3.48e7	6.16e7	1.63e7	inactive
CG34029	DRSC03909	2.59e7	4.35e7	1.22e7	1.83e7	inactive
Src42A	DRSC04865	3.40e7		1.71e7		inactive
Src42A	DRSC04915	3.91e7	4.55e7	1.99e7	2.01e7	inactive
CecA1	DRSC16603	2.56e7	2.77e7	1.42e7	1.42e7	inactive
CG13784	DRSC00974	2.78e7	3.29e7	1.39e7	1.30e7	inactive
CG13784	DRSC02287	5.11e7		2.12e7		inactive
CG11437	DRSC11659	3.01e7	5.58e7	1.44e7	2.40e7	inactive
Ir10a	DRSC18891	2.75e7	2.66e7	1.33e7	1.33e7	inactive
Ir10a	DRSC19478	4.42e7	3.75e7	2.09e7	1.93e7	inactive
Ir10a	DRSC19479	4.10e7	4.85e7	1.88e7	2.20e7	inactive
E2f1	DRSC16655	1.71e7	2.47e7	1.06e7	4.43e7	inactive
otk2	DRSC07303	3.46e7	3.54e7	1.78e7	1.61e7	inactive
SmE	DRSC02680	2.16e7	1.78e7	1.32e7	1.13e7	active
Tailor	DRSC12526	4.56e7	3.09e7	2.32e7	1.64e7	inactive
CG18180	DRSC10304	5.36e7	4.00e7	3.48e7	1.61e7	inactive
Cyp6d4	DRSC16633	5.61e7	4.92e7	2.46e7	2.09e7	inactive
GstE13	DRSC06083	5.38e7	4.36e7	2.30e7	1.86e7	inactive
eEF5	DRSC04681	2.01e7	1.80e7	1.16e7	1.00e7	inactive
NT5E-2	DRSC06893	2.74e7	2.57e7	1.28e7	1.45e7	inactive
Ubr1	DRSC20148	2.96e7	2.50e7	1.47e7	1.24e7	inactive
CG7378	DRSC20041	5.10e7	4.88e7	2.30e7	1.94e7	inactive
IntS12	DRSC15818	2.62e7	3.05e7	1.48e7	1.51e7	inactive
mdu	DRSC19860	4.68e7	3.26e7	2.78e7	2.12e7	inactive
mdu	DRSC23192	4.19e7	4.49e7	1.86e7	1.79e7	inactive
CG14183	DRSC10182	3.76e7	4.99e7	1.70e7	3.11e7	inactive
CG43366	DRSC04857	4.24e7	5.71e7	2.24e7	2.38e7	inactive
CG43366	DRSC04864	4.49e7	5.35e7	2.36e7	2.24e7	inactive
CG7778	DRSC03067	7.73e7		2.83e7		inactive
